Experimental data from PMC11021233.
Results are given in words; binding and its absence hold for the method and conditions named. In cells and extracts the contact can be indirect. Some entries that bind do so weakly or less than the wild type.

Chains of the proteins cited; added tags and fusions are not shown.
UniProt Q93009: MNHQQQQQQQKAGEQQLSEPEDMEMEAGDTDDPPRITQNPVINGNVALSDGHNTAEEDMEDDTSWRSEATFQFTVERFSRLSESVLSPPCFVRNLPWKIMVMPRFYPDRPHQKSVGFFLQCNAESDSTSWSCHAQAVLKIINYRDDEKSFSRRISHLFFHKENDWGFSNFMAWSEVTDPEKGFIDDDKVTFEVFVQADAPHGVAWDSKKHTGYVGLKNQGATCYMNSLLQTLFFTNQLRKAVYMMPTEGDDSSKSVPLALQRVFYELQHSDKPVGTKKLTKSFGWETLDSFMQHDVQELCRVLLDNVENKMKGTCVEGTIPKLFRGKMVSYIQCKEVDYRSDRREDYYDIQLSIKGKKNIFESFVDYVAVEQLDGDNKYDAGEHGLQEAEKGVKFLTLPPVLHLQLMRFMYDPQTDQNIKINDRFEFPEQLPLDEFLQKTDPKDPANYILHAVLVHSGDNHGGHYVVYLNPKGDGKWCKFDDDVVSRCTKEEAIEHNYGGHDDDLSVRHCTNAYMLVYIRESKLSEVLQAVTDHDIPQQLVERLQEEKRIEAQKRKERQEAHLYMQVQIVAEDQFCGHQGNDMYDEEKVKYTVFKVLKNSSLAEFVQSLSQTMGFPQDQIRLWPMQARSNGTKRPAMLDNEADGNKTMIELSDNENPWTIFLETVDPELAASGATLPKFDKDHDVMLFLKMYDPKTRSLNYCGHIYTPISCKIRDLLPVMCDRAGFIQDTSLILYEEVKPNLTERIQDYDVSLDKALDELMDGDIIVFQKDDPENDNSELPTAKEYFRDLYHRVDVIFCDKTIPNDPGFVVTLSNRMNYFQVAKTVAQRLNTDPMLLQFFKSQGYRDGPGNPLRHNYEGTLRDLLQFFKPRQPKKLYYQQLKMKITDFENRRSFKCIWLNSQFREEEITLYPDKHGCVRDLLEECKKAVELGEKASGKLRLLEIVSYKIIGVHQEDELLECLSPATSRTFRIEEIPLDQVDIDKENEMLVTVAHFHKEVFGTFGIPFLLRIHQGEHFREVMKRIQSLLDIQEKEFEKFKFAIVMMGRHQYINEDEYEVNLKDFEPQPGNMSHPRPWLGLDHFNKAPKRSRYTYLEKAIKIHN

Molecular target: ubiquitin specific protease 7 (human (endogenous in the cell lines of the paper; SiHa and HeLa are the CC lines used, not named for the co-IP)) (UniProt Q93009)
Test: co-IP; cell lysate in co-IP buffer (50 mM Tris pH 7.5, 150 mM NaCl, 5 mM EDTA, 1-2% Nonidet P-40, protease inhibitors); anti-USP7 or anti-IgG with protein A + G agarose beads, 4 °C, 4 h; western blotting

B1: Metadherin (protein, UniProt Q86UE4 1-582)
chain: MAARSWQDELAQQAEEGSARLREMLSVGLGFLRTELGLDLGLEPKRYPGWVILVGTGALGLLLLFLLGYGWAAACAGARKKRRSPPRKREEAAAVPAAAPDDLALLKNLRSEEQKKKNRKKLSEKPKPNGRTVEVAEGEAVRTPQSVTAKQPPEIDKKNEKSKKNKKKSKSDAKAVQNSSRHDGKEVDEGAWETKISHREKRQQRKRDKVLTDSGSLDSTIPGIENTITVTTEQLTTASFPVGSKKNKGDSHLNVQVSNFKSGKGDSTLQVSSGLNENLTVNGGGWNEKSVKLSSQISAGEEKWNSVSPASAGKRKTEPSAWSQDTGDANTNGKDWGRSWSDRSIFSGIGSTAEPVSQSTTSDYQWDVSRNQPYIDDEWSGLNGLSSADPNSDWNAPAEEWGNWVDEERASLLKSQEPIPDDQKVSDDDKEKGEGALPTGKSKKKKKKKKKQGEDNSTAQDTEELEKEIREDLPVNTSKTRPKQEKAFSLKTISTSDPAEVLVKNSQPIKTLPPATSTEPSVILSKSDSDKSSSQVPPILQETDKSKSNTKQNSVPPSQTKSETSWESPKQIKKKKKARRET
With B1 the binding was “binds”.
